# Laboratory results from patent publication US20140057332A1, “GLUCO-OLIGOSACCHARIDE OXIDASES FROM ACREMONIUM STRICTUM AND USES THEREOF” (The Governing Council of the University of Toronto, priority 2011, published 2014).
# Substitutions are numbered along the chain they refer to. Numbers in names are those of the source. For some of these results: The name of at least one read-out is uncertain. Some entries share one result that the patent states for a list of compounds.
# B1: Acremonium strictum gluco-oligosaccharide oxidase GOOX-VN (type strain CBS 346.70, V38 and N388), SEQ ID NO. 2 (Sarocladium strictum; A38V/S388N) (protein)
# chain: NSINACLAAADVEFHEEDSEGWEMDGTAFNLRVDYDPVAIAIPRSTEDIAAAVQCGLDAGVQISAKGGGHSYGSYGFGGEDGHLMLELDRMYRVSVDDDNVATIQGGARLGYTALELLDQGNRALTHGTCPAVGIGGHVLGGGYGFATHTHGLTLDWLVGATVVLADASIVHVSKTENADLFWALRGGGGGFAIVSEFEFNTFEAPEIITTYQVTTTWNRKQHVAGLKALQDWAENTMPRELSMRLEINANALNWEGNYFGNAKDLKKVLQPIMKKAGGKSTISKLVETDWYGQINTYLYGADLNITYNYDVHEYFYANSLTAPRLSDEAISAFVDYKFDNSSVRPGRGWWIQWDFHGGKNSALASHSNDETAYAHRDQLWLWQFYDNIYDYENNTSPYPESGFEFMQGFVATIEDTLPEDRKGKYFNYADTTLDKEEAQKLYWRGNLEKLQAIKAKYDPEDVFGNVVSVEPIA
# B2: Acremonium strictum gluco-oligosaccharide oxidase GOOX-VN variant 1 Y300A, SEQ ID NO. 6 (Sarocladium strictum; A38V/S388N/Y300A) (protein)
# chain: B1 chain with Y300A
# B3: Acremonium strictum gluco-oligosaccharide oxidase GOOX-VN variant 2 Y300N, SEQ ID NO. 7 (Sarocladium strictum; A38V/S388N/Y300N) (protein)
# chain: B1 chain with Y300N
# B4: Acremonium strictum gluco-oligosaccharide oxidase GOOX-VN variant 3 W351F, SEQ ID NO. 8 (Sarocladium strictum; A38V/S388N/W351F) (protein)
# chain: B1 chain with W351F
# Assay: Temperature stability (residual activity on cellobiose)
# Format: physicochemical
# Conditions: 1 h at 50° C.
# Experimental: Temperature stability was measured by incubating 0.2 μg of enzyme for 1 h at nine different temperatures ranging from 25 to 60° C. (Table 9). While GOOX-VN and the variant GOOX-V were stable at 45° C., both lost more than 70% activity after incubation for 1 h at 50° C. […] The pH stability of GOOX-VN was determined by incubating 0.2 μg of the enzyme for 1 h at pH values from pH 3 to 12. After 1 h of incubation, GOOX-VN retained more than 80% activity at pH 5 to pH 10, 40% activity at pH 4, and less than 10% activity at pH values below 3 or above 11. Finally, the optimum pH for GOOX-VN activity was determined by incubating 0.1 μg of enzyme at 37° C. for up to 5 min with 25 mM cellobiose in 25 mM Britton-Robinson universal buffer solutions at pH 5 to 12. At regular time points, the chromogenic assay mix containing 400 mM potassium phosphate buffer pH 6, 0.1 mM 4-aminoantipyrine, 1 mM phenol, 3 U/ml horseradish peroxidase and 40 mM cellobiose was added to the reaction and was incubated for approximately 5 min at 37° C., until the chromogenic compound was detected.
row,Molecule,activity lost after incubation
1,B1,more than 70%

# Assay: Chromogenic H2O2 oxidase assay / kinetic analysis on NAG
# Conditions: substrate NAG; 37° C., pH 8.0
row,Molecule,kcat/Km
1,B1,23.3 ± 1.7 M⁻¹ s⁻¹
2,B2,138 ± 6.7 M⁻¹ s⁻¹
3,B3,203 ± 6.7 M⁻¹ s⁻¹
4,B4,8.3 ± 1.7 M⁻¹ s⁻¹

# Assay: Chromogenic H2O2 oxidase assay / kinetic analysis on xylose
# Conditions: substrate xylose; 37° C., pH 8.0
row,Molecule,kcat/Km
1,B1,50 ± 5 M⁻¹ s⁻¹
2,B2,218 ± 8.3 M⁻¹ s⁻¹
3,B3,362 ± 20 M⁻¹ s⁻¹
4,B4,16.7 ± 0 M⁻¹ s⁻¹

# Assay: Chromogenic H2O2 oxidase assay / kinetic analysis on glucose
# Conditions: substrate glucose; 37° C., pH 8.0
row,Molecule,kcat/Km
1,B1,432 ± 18.3 M⁻¹ s⁻¹
2,B2,1630 ± 85 M⁻¹ s⁻¹
3,B3,3482 ± 138 M⁻¹ s⁻¹
4,B4,182 ± 8.3 M⁻¹ s⁻¹

# Assay: Chromogenic H2O2 oxidase assay / kinetic analysis on maltose
# Conditions: substrate maltose; 37° C., pH 8.0
row,Molecule,kcat/Km
1,B1,2138 ± 125 M⁻¹ s⁻¹
2,B2,947 ± 46.7 M⁻¹ s⁻¹
3,B3,530 ± 18.3 M⁻¹ s⁻¹
4,B4,1080 ± 51.7 M⁻¹ s⁻¹

# Assay: Chromogenic H2O2 oxidase assay / kinetic analysis on galactose
# Conditions: substrate galactose; 37° C., pH 8.0
row,Molecule,kcat/Km
1,B1,55 ± 3.3 M⁻¹ s⁻¹
2,B2,138 ± 8.3 M⁻¹ s⁻¹
3,B3,107 ± 1.7 M⁻¹ s⁻¹
4,B4,182 ± 6.7 M⁻¹ s⁻¹

# Assay: Chromogenic H2O2 oxidase assay / kinetic analysis on xylobiose
# Conditions: substrate xylobiose; 37° C., pH 8.0
row,Molecule,kcat/Km
1,B1,89800 ± 867 M⁻¹ s⁻¹
2,B2,2603 ± 80 M⁻¹ s⁻¹
3,B3,2477 ± 91.7 M⁻¹ s⁻¹
4,B4,23050 ± 683 M⁻¹ s⁻¹

# Assay: Chromogenic H2O2 oxidase assay / kinetic analysis on cellobiose
# Conditions: substrate cellobiose; 37° C., pH 8.0
row,Molecule,kcat/Km
1,B1,95530 ± 13900 M⁻¹ s⁻¹
2,B2,56100 ± 4800 M⁻¹ s⁻¹
3,B3,29720 ± 1630 M⁻¹ s⁻¹
4,B4,69000 ± 1000 M⁻¹ s⁻¹

# Assay: Chromogenic H2O2 oxidase assay / kinetic analysis on xylotriose
# Conditions: substrate xylotriose; 37° C., pH 8.0
row,Molecule,kcat/Km
1,B1,84320 ± 8530 M⁻¹ s⁻¹
2,B2,4410 ± 158 M⁻¹ s⁻¹
3,B3,2757 ± 167 M⁻¹ s⁻¹
4,B4,25700 ± 867 M⁻¹ s⁻¹

# Assay: Chromogenic H2O2 oxidase assay / kinetic analysis on cellotriose
# Conditions: substrate cellotriose; 37° C., pH 8.0
row,Molecule,kcat/Km
1,B1,70570 ± 8150 M⁻¹ s⁻¹
2,B2,44450 ± 3620 M⁻¹ s⁻¹
3,B3,22700 ± 550 M⁻¹ s⁻¹
4,B4,47330 ± 4420 M⁻¹ s⁻¹
